# Some results were stated once for a whole list of compounds, not compound by compound.
# Tested on: LLC tumor
# Assay: LLC implantation tumor model, tumor growth
# Format: in vivo, mouse
# Settings: LLC implanted WT mice; en-siJ 2 mg/kg IV, VEGF-trap 25 mg/kg; control en-siC+Fc
# Procedure: LLC and B16F10 melanoma cells were obtained from American Type Culture Collection. To generate implantation tumor models, suspensions of tumor cells (1×10^6 cells in 100 μl) were SC injected into the dorsal flank of 8 to 10 weeks old mice. Tumor volumes were measured at given time points. Tumor volume was calculated according to the formula, 0.5×A×B^2, where A is the largest diameter of a tumor and B is its perpendicular diameter. Tumor growth rate is defined as increased tumor volume relative to 2 days before. Indicated days later, the mice were anesthetized and tissues were harvested for further analyses. Tamoxifen (4 mg/kg, 4 times every 2 days, Sigma-Aldrich) was IP injected into Cdh5(PAC)-Cre^ERT2;Rhor^fl/fl mice starting from the day before tumor implantation or after the tumor volume had exceeded 300 mm^3. Cisplatin (10 mg/kg, every 7 days, Sigma-Aldrich) is IP injected for cytotoxic chemotherapy when tumor volume exceeded 100 mm^3. VEGF-trap (25 mg/kg, indicated schedule) is SC injected as an AIA therapy. CA4P (50 mg/kg, every 2 days, Sigma-Aldrich) was IP injected as a VDA therapy. As a control, equal amounts of Fc or PBS was injected in the same manner. To knock down RhoJ in vivo, control or RhoJ siRNA (2 mg/kg, indicated schedule), which were encapsulated into aptEDB-LS complexes, were IV injected into tumor-bearing mice.
substance,measurement,value
"VEGF-trap: VEGF decoy receptor; recombinant protein from stable CHO cell lines, sequesters VEGF",decrease in tumor volume compared to the control group,40-50%

# Source: patent publication US20140370079A1, “METHOD FOR TARGETING VASCULAR RHOJ FOR INHIBITING TUMOR ANGIOGENESIS” (Korea Advanced Institute of Science and Technology (KAIST), priority 2013, published 2014)
